# Source: PubChem BioAssay AID493014 (National Center for Advancing Translational Sciences (NCATS), 2011)
# This is one part of the list. These are further read-outs of the screen, such as a control signal, another cell line or another target. No call is given for them. The list favours compounds with an active or inconclusive main result. Words in brackets tell the shape of the fitted curve; partial curves, single points and poor fits give uncertain potencies.
# Test: qHTS Assay to Find Inhibitors of Chronic Active B-Cell Receptor Signaling
# Conditions: ABC-DLBCL IkBa-CBG/CBR reporter, luminescence ratio (green luciferase fused to IkBa over red control in TMD8 lymphoma cells), 4 h
# Outline: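 TMD8 ABC-DLBCL cells carrying doxycycline-inducible green luciferase fused to IkappaBalpha plus unfused red luciferase were exposed to compounds (up to 46 uM) for 4 hrs at 37C. Activity came from the overlap-corrected green/red luminescence ratio.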
# [1] = measured here: CBR red luminescence, cell number
# [2] = measured here: IkBa-CBG green luminescence
Compound,AC50 [1],AC50 [2]
O=C(c1cc(-c2ccc3c(c2)OCO3)on1)N1CCN(c2ccccc2)CC1,"7.94 µM [falling, partial curve]",–
COc1ccc(CC(NC(C)=O)C(=O)NC2CCN(C(=O)Nc3ccc(C#N)cc3)CC2)cc1OC (stereo not given),"3.26 µM [rising, partial curve]",–
CCOCCCNC(=S)NCCNc1nc2c(C)cccc2cc1C#N,"23.1 µM [falling, single point]",–
CN1CC2=Cc3ccccc3OC23Oc2ccccc2C=C3C1,"11.2 µM [falling, partial curve]",–
Cc1ccsc1/C=C1/SC(N2CCOCC2)=NC1=O,"29.1 µM [rising, single point]",–
O=C(CSc1nc2c([nH]c3ccccc32)c(=O)n1-c1cccc(Cl)c1)N1CCOCC1,"18.4 µM [falling, single point]",–
COc1ccc(OC)c(C(=O)c2coc3ccc(O)cc23)c1,"35.5 µM [falling, single point]",–
O=C(COC(=O)c1ccc[nH]c1=O)NCCc1ccc(Cl)cc1Cl,"14.1 µM [rising, partial curve]",–
CC(C)(C)NC(=O)C(=O)NNC(=O)c1cccc(F)c1,"12.6 µM [falling, single point]",–
CCC(NC(=O)c1ccccc1NC(=O)c1ccccc1)C(=O)O (stereo not given),"2.82 µM [falling, full curve]",–
O=C(O)CSc1nnc(C2CC2)n1-c1ccccc1,"0.231 µM [rising, full curve, poor fit]",–
Cc1ccc(NC(=O)CC2SC(=O)N(c3ccccc3)C2=O)cc1 (stereo not given),"6.51 µM [falling, full curve]",–
CCO/N=C1\C(=O)N(c2ccccc2)c2ccccc21,"11.2 µM [rising, partial curve, poor fit]",–
COCCn1c(=O)[nH]c2cc(C(=O)N3CCN(c4ccccc4F)CC3)ccc2c1=O,"1.12 µM [falling, full curve, poor fit]",–
CCc1ccc(C(=O)CN(C#N)c2nc(C)cc(C)n2)cc1,"6.31 µM [falling, single point]",–
O=C(NNc1ccc(C(F)(F)F)cc1[N+](=O)[O-])c1ccc(NS(=O)(=O)c2ccc(F)cc2)cc1,"25.9 µM [falling, partial curve, poor fit]",–
CC1(C)C(C=C(Cl)Cl)C1C(=O)NC(O)C(=O)c1ccccc1 (stereo not given),"15.8 µM [falling, partial curve, poor fit]",–
CC1CC2(C)Oc3ccccc3CC2C(C)C1CNCCCN(C)C (stereo not given),"8.91 µM [falling, partial curve]",–
O=C(NCCO)c1cccc(Cl)c1,"0.206 µM [rising, partial curve, poor fit]",–
O=C(CCc1ccccc1)Nc1cc2c(cc1C(=O)O)OCCCO2,"5.8 µM [falling, partial curve]",–
COc1cccc(C(C(=O)NC2CCCC2)N(C(=O)c2ccco2)c2ccccc2)c1OC (stereo not given),"1 µM [falling, partial curve, poor fit]",–

Compound,AC50 [1],AC50 [2]
CCCc1ccc(C(=O)O/N=C(\N)c2ccccn2)cc1,"20 µM [falling, single point]",–
COc1ccc(C(=O)OCC#CCSc2nnc(-c3cccc4ccccc34)o2)cc1,"3.26 µM [falling, partial curve, poor fit]",–
O=C(CSc1nnnn1-c1cccnc1)Nc1ccccc1F,"7.94 µM [falling, single point]",–
CCOC(=O)c1cnc(-n2nc(C)cc2C)nc1Nc1cccc(C(=O)O)c1,"7.08 µM [falling, partial curve]",–
Cc1cccc(OCc2nnc(SCC(=O)Nc3cccc(C(=O)N4CCOCC4)c3)n2C)c1,"0.00461 µM [rising, full curve, poor fit]",–
O=[N+]([O-])c1ccc(Cl)c(/C=N/Nc2nc(N3CCOCC3)nc(N3CCOCC3)n2)c1,"29.1 µM [rising, single point]",–
COc1ccc2nc(NC(=O)c3ccc(Br)s3)sc2c1,"7.31 µM [falling, partial curve, poor fit]",–
CCOc1ccc(/C=N/NC(=O)Cc2csc(Nc3cccc(C(F)(F)F)c3)n2)cc1,"14.6 µM [falling, partial curve]","25.9 µM [rising, partial curve, poor fit]"
CCOC(=O)N1CCc2c(sc3c2C(=O)NC(c2cc(OC)c(O)c(OC)c2)N3)C1 (stereo not given),"15.8 µM [falling, partial curve, poor fit]",–
O=C(Nc1cccc(Cl)c1Cl)c1cc(S(=O)(=O)NCCc2ccccc2)ccc1F,"11.2 µM [falling, partial curve, poor fit]",–
CCOC(=O)C1CCCN(C(=O)c2cccc(S(=O)(=O)N3CCCC3)c2)C1 (stereo not given),"0.0082 µM [rising, full curve, poor fit]",–
Cc1ccc(/C=N/NC(=O)c2cccs2)cc1[N+](=O)[O-],"12.6 µM [falling, partial curve]",–
Cc1ccccc1-n1c(SCC(=O)N/N=C/c2c(C)nn(-c3ccccc3)c2C)nc2ccccc2c1=O,"0.184 µM [rising, full curve, poor fit]","2.31 µM [falling, partial curve, poor fit]"
O=C(CP(=O)(c1ccccc1)c1ccccc1)Nn1cnnc1,"3.55 µM [rising, partial curve, poor fit]",–
Cc1cccc(N=Nc2cnc(N)s2)c1,"3.55 µM [rising, single point]",–
CC(=O)OC1OCCOC1NC(=S)Nc1cccc(C(F)(F)F)c1 (stereo not given),"0.398 µM [rising, full curve, poor fit]",–
N#C/C(=C\c1cccc(O)c1)C(=O)Nc1ccc2c(c1)OCCO2,"22.4 µM [falling, partial curve]",–
O=C(Nc1sccc1C(=O)N1CCOCC1)c1cccnc1,"29.1 µM [falling, partial curve, poor fit]",–
O=C(/C=C/c1ccco1)NC(=S)Nc1ccccn1,"16.4 µM [falling, partial curve]",–
NC(=O)C1CCCN(C(=S)NCc2ccc3c(c2)OCO3)C1 (stereo not given),"35.5 µM [falling, single point]",–
COc1ccc(CNC(=O)c2cc(=O)c3cc(C)ccc3o2)cc1,"3.55 µM [rising, full curve]",–

# Three consecutive compounds out of the list so far, quoted:
Compound,AC50 [1],AC50 [2]
O=[N+]([O-])c1ccc(Cl)c(/C=N/Nc2nc(N3CCOCC3)nc(N3CCOCC3)n2)c1,"29.1 µM [rising, single point]",–
COc1ccc2nc(NC(=O)c3ccc(Br)s3)sc2c1,"7.31 µM [falling, partial curve, poor fit]",–
CCOc1ccc(/C=N/NC(=O)Cc2csc(Nc3cccc(C(F)(F)F)c3)n2)cc1,"14.6 µM [falling, partial curve]","25.9 µM [rising, partial curve, poor fit]"

# Carrying on.

Compound,AC50 [1],AC50 [2]
Cc1cccc(C)c1NC(=O)CN(C)C(C)C(=O)Nc1ccccc1-c1ccccc1 (stereo not given),"35.5 µM [falling, single point]",–
COc1ccc(CNc2nc(C)cc(C)c2C#N)cc1,"7.94 µM [rising, partial curve, poor fit]",–
Cn1c(=NC(=O)C2CC2)sc2cc(F)cc(F)c21,"0.164 µM [falling, full curve, poor fit]",–
CCCc1[nH]n(-c2ccc([N+](=O)[O-])cc2)c(=O)c1C=NCCc1ccc(OC)c(OC)c1,"0.794 µM [rising, partial curve, poor fit]",–
Cc1ccc(/C=C/C(=O)C2C(=O)c3ccccc3C2=O)cc1,"1.78 µM [falling, full curve]",–
CCC(=O)c1ccc(CCCCCC(=O)O)s1,"0.731 µM [falling, full curve, poor fit]",–
COc1ccccc1NC(=S)NC(=O)CCCOc1ccc(Cl)cc1Cl,"16.4 µM [falling, single point]",–
COc1ccc(/C=N/Nc2nc(C)c([N+](=O)[O-])c(N(C)c3ccccc3)n2)cc1OC,"20 µM [rising, partial curve, poor fit]",–
N#Cc1ccc(CSc2nnc(NC(=O)c3ccc4ncsc4c3)s2)cc1,"35.5 µM [falling, single point]",–
CC[C@]12c3[nH]c4ccccc4c3CCN1C(=O)C(CC(=O)NCCCn1ccnc1)C[C@@H]2C(=O)N1CCN(C(=O)c2ccco2)CC1 (stereo not given in full),"3.66 µM [rising, partial curve, poor fit]",–
CCc1ccccc1N(C)S(=O)(=O)c1ccc(-c2cc(C)no2)s1,–,"11.2 µM [falling, partial curve, poor fit]"
Cc1ccccc1NC(=O)CSc1nnc(-c2ccccn2)o1,"6.31 µM [falling, partial curve, poor fit]",–
Fc1ccc(-n2c(-c3cccs3)nc3nc4ccccc4nc32)cc1,"3.66 µM [rising, partial curve, poor fit]",–
O=c1cc2[nH]c3ccccc3c(=O)n2nc1-c1ccccc1,"1.84 µM [falling, full curve]",–
COc1cccc(NC(=O)CN(C)C(=O)CCCc2nc3ccccc3c(=O)[nH]2)c1,"1.84 µM [rising, single point]",–
CCC(=O)Nc1cccc(C(=O)Nc2nccs2)c1,"5.62 µM [falling, partial curve, poor fit]",–
COc1ccc(NC(=O)CN(c2ccccc2)S(=O)(=O)N(C)C)cc1Cl,"35.5 µM [falling, single point]",–
COc1ccc(CN(C)C(=O)c2ccc(NC(=O)CC3SC(N4CCCC4)=NC3=O)cc2)c(OC)c1 (stereo not given),"3.26 µM [rising, full curve]",–
CN(C(=O)COC(=O)CNC(=O)C1CCCCC1)c1ccccc1,"32.6 µM [rising, partial curve, poor fit]",–
Cc1cccc2sc(NS(=O)(=O)c3ccccc3)nc12,"11.2 µM [rising, partial curve]",–
CCN(CC)CCNC(=O)c1sc2ncn(CC(=O)Nc3ccc(C)c(Cl)c3)c(=O)c2c1C,"25.1 µM [falling, single point]",–
